In US7879853B2, “4,6-disubstituted pyrimidines and their use as protein kinase inhibitors” (Bayer Schering Pharma AG, priority 2004, dated 2011):
pIC50: −log10 of the molar value. Some results were stated once for a whole list of compounds, not compound by compound.

The chains behind the UniProt entries cited, without tags or fusion partners. Residues count along the entry.
UniProt P31749, 107-480 limits assumed, stated change not applied: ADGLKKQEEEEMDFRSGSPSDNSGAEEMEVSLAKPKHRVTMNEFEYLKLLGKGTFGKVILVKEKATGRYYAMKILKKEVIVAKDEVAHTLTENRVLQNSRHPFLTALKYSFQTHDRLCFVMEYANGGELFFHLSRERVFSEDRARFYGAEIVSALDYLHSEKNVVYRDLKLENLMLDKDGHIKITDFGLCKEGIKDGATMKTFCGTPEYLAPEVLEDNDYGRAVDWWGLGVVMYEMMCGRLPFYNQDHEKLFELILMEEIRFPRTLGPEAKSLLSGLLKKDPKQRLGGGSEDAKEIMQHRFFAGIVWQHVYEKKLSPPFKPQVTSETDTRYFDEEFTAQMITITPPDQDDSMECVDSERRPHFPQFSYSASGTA

target: T1, GST-ΔPH-Akt1 (Homo sapiens, UniProt P31749); experiment: Biochemical ΔPH Akt1 assay (flashplate, 33P-ATP, histone 2B); conditions: GST-ΔPH-Akt1, histone 2B substrate, 100 nM ATP, 80 minutes at 30° C.; read-out: Akt inhibition: IC50 (inhibition of deltaPHAkt1)
T1 construct: named GST-deltaPH-Akt1; 107480aa; cloned in the pAcG1 vector; made in house; host or cells: SF9 insect cells (pAcG1 vector), co-expressed with PDK1
Source text: For the biochemical assay ΔPHAkt1 was used devoid of its PH domain as a GST fusion protein (named GST-deltaPH-Akt1; 107480aa; cloned in the pAcG1 vector (BD Biosciences Pharmingen)), co-expressed with PDK1 in SF9 insect cells. The protein was purified using glutathion-affinity chromatography by standard protocols.
In order to study the inhibition of Akt according to the invention, a flashplate-based assay has been developed.
The Akt1 assay is a biochemical assay using Akt1 devoid of its PH domain and co-expressed with PDK1 in insect cells. The GST-ΔPH-Akt1 assay is run in 96 well plates by incubating 100 ng/well GST-ΔPH-Akt1, 100 ng/well histone 2B (Roche, #223514) as substrate, 10 μl of compound of invention (test compounds were dissolved as 10 mM solutions in dimethylsulfoxide (DMSO) and subsequently diluted) and 100 nM ATP (including ^33P-ATP) in 100 μl of reaction buffer ([…], pH7.5; 3 mM MgCl2; 3 mM MnCl2; 3 μM Na-Orthovanadat; 1 mM DTT; 1 μg/ml PEG8000) for 80 minutes at 30° C. The reactions are terminated by adding 100 μl stopping buffer (2% H3PO4 for 5 minutes) and are washed 3 times by using washing buffer (0.9% NaCl). Relying on the incorporation of ^33P into the protein substrate histone 2B, the detection is based on the adhesion of the phosphorylated protein to the surface of scintillator-coated flash plates (NEN, USA; #SMP-200). This phosphorylation is measured by counting the plate for 60 sec. using a plate reader (Wallac Microbeta; Perkin Elmer, USA). The analysis of the data is performed using a biostatistical program (GraphPad Prism, USA).

pIC50, ≥ 5.70:
CN(C)c1ccc(C(=O)Nc2ccc(Nc3cc(-c4cccc5c4oc4ccccc45)ncn3)cc2)cc1 [Compound 2, N-[4-(6-Dibenzofuran-4-yl-pyrimidin-4-ylamino)-phenyl]-4-dimethylamino-benzamide]
CN(C)c1cccc(C(=O)Nc2ccc(Nc3cc(-c4cccc5c4oc4ccccc45)ncn3)cc2)c1 [Compound 10, N-[4-(6-Dibenzofuran-4-yl-pyrimidin-4-ylamino)-phenyl]-3-dimethylamino-benzamide]
N=C(N)c1cccc(C(=O)Nc2ccc(Nc3cc(-c4cccc5c4oc4ccccc45)ncn3)cc2)c1 [Compound 45, 3-Carbamimidoyl-N-[4-(6-dibenzofuran-4-yl-pyrimidin-4-ylamino)-phenyl]-benzamide]
N=C(N)c1ccc(C(=O)Nc2ccc(Nc3cc(-c4cccc5c4oc4ccccc45)ncn3)cc2)cc1 [Compound 47, 4-Carbamimidoyl-N-[4-(6-dibenzofuran-4-yl-pyrimidin-4-ylamino)-phenyl]-benzamide]
NCc1ccc(C(=O)Nc2ccc(Nc3cc(-c4cccc5c4oc4ccccc45)ncn3)cc2)cc1.O=C(O)C(F)(F)F [Compound 49, 4-Aminomethyl-N-[4-(6-dibenzofuran-4-yl-pyrimidin-4-ylamino)-phenyl]-benzamide trifluoroacetate]
Nc1ccccc1C(=O)Nc1ccc(Nc2cc(-c3cccc4c3oc3ccccc34)ncn2)cc1.O=C(O)C(F)(F)F [Compound 50, 2-Amino-N-[4-(6-dibenzofuran-4-yl-pyrimidin-4-ylamino)-phenyl]-benzamide trifluoroacetate]
O=C(Nc1ccc(Nc2cc(-c3cccc4c3oc3ccccc34)ncn2)cc1)c1ccc(C2CCCNC2)cc1.O=C(O)C(F)(F)F (stereo not drawn) [Compound 52, N-[4-(6-Dibenzofuran-4-yl-pyrimidin-4-ylamino)-phenyl]-4-piperidin-3-yl-benzamide trifluoroacetate]
NCc1cccc(C(=O)Nc2ccc(Nc3cc(-c4cccc5c4oc4ccccc45)ncn3)cc2)c1.O=C(O)C(F)(F)F [Compound 54, 3-Aminomethyl-N-[4-(6-dibenzofuran-4-yl-pyrimidin-4-ylamino)-phenyl]-benzamide trifluoroacetate]
NCCc1ccc(C(=O)Nc2ccc(Nc3cc(-c4cccc5c4oc4ccccc45)ncn3)cc2)cc1.O=C(O)C(F)(F)F [Compound 55, 4-(2-Amino-ethyl)-N-[4-(6-dibenzofuran-4-yl-pyrimidin-4-ylamino)-phenyl]-benzamide trifluoroacetate]
NCCc1ccc(C(=O)Nc2cccc(Nc3cc(-c4cccc5c4oc4ccccc45)ncn3)c2)cc1.O=C(O)C(F)(F)F [Compound 58, 4-(2-Amino-ethyl)-N-[3-(6-dibenzofuran-4-yl-pyrimidin-4-ylamino)-phenyl]-benzamide trifluoroacetate]
CNCc1ccc(C(=O)Nc2ccc(Nc3cc(-c4cccc5c4oc4ccccc45)ncn3)cc2)cc1.O=C(O)C(F)(F)F [Compound 63, N-[4-(6-Dibenzofuran-4-yl-pyrimidin-4-ylamino)-phenyl]-4-methylaminomethyl-benzamide trifluoroacetate]
NCc1ccc(C(=O)Nc2ccc(Nc3cc(-c4cccc5c4oc4ccccc45)ncn3)cc2)cn1.O=C(O)C(F)(F)F [Compound 64, 6-Aminomethyl-N-[4-(6-dibenzofuran-4-yl-pyrimidin-4-ylamino)-phenyl]-nicotinamide trifluoroacetate]
NCc1cc(C(=O)Nc2ccc(Nc3cc(-c4cccc5c4oc4ccccc45)ncn3)cc2)ccn1.O=C(O)C(F)(F)F [Compound 65, 2-Aminomethyl-N-[4-(6-dibenzofuran-4-yl-pyrimidin-4-ylamino)-phenyl]-isonicotinamide trifluoroacetate]
NCc1ccc(CC(=O)Nc2ccc(Nc3cc(-c4cccc5c4oc4ccccc45)ncn3)cc2)cc1.O=C(O)C(F)(F)F [Compound 66, 2-(4-Aminomethyl-phenyl)-N-[4-(6-dibenzofuran-4-yl-pyrimidin-4-ylamino)-phenyl]-acetamide trifluoroacetate]
CC(C)(N)c1ccc(C(=O)Nc2ccc(Nc3cc(-c4cccc5c4oc4ccccc45)ncn3)cc2)cc1 [Compound 69, 4-(1-Amino-1-methyl-ethyl)-N-[4-(6-dibenzofuran-4-yl-pyrimidin-4-ylamino)-phenyl]-benzamide trifluoracetate]
NCc1cccc(C(=O)Nc2ccc(Nc3cc(-c4cccc5c4oc4ccccc45)ncn3)cc2)n1 [Compound 73, 6-Aminomethyl-pyridin-2-carbonsäure-[4-(6-dibenzofuran-4-yl-pyrimidin-4-ylamino)-phenyl]-amide]
NCC(C(=O)Nc1ccc(Nc2cc(-c3cccc4c3oc3ccccc34)ncn2)cc1)c1ccc(Cl)c(Cl)c1.O=C(O)C(F)(F)F (stereo not drawn) [Compound 75, 3-Amino-N-[4-(6-dibenzofuran-4-yl-pyrimidin-4-ylamino)-phenyl]-2-(3,4-dichloro-phenyl)-propionamide trifluoroacetate]
NCC(C(=O)Nc1cccc(Nc2cc(-c3cccc4c3oc3ccccc34)ncn2)c1)c1ccc(Cl)c(Cl)c1.O=C(O)C(F)(F)F (stereo not drawn) [Compound 76, 3-Amino-N-[3-(6-dibenzofuran-4-yl-pyrimidin-4-ylamino)-phenyl]-2-(3,4-dichlorophenyl)-propionamide trifluoroacetat]
